Test results as given in patent publication US20260166038A1, “METHOD OF ENHANCING THE EFFICACY OF A TARGETED PROTEIN DEGRADER AND ITS DERIVATIVE THERAPEUTICS” (ShanghaiTech University, priority 2022, published 2026).
At least one structure is not confirmed: it was looked up by name or label, or the drawing left a doubt.

By UniProt entry, the sequences of proteins in these tests, tags left out. Where a name states a change or a piece, a line headed by the entry shows the natural chain unless it says otherwise.
UniProt P15170, whole entry: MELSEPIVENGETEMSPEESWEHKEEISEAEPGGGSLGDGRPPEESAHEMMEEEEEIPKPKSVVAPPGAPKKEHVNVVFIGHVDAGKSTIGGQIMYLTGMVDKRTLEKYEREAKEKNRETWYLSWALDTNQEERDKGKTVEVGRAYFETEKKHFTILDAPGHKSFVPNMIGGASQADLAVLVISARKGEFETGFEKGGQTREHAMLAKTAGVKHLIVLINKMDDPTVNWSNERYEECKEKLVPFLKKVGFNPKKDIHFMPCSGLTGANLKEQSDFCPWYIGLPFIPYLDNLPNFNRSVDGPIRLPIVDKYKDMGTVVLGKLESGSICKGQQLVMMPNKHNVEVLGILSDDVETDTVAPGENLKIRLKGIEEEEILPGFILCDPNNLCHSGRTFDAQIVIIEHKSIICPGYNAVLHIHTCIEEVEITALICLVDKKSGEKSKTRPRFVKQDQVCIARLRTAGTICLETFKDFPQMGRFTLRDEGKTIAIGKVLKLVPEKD
UniProt Q96SW2: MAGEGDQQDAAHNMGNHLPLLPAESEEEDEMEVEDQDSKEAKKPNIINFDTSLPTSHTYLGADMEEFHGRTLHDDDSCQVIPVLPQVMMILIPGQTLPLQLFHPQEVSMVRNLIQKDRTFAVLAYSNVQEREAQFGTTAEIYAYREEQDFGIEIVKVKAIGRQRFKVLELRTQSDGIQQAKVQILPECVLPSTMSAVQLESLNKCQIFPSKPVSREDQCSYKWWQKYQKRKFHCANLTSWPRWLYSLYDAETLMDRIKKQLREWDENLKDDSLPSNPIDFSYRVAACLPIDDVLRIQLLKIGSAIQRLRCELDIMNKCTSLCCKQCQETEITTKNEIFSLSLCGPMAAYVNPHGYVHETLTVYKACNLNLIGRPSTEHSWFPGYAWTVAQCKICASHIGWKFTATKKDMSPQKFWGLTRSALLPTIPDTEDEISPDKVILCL
UniProt Q9UKT9: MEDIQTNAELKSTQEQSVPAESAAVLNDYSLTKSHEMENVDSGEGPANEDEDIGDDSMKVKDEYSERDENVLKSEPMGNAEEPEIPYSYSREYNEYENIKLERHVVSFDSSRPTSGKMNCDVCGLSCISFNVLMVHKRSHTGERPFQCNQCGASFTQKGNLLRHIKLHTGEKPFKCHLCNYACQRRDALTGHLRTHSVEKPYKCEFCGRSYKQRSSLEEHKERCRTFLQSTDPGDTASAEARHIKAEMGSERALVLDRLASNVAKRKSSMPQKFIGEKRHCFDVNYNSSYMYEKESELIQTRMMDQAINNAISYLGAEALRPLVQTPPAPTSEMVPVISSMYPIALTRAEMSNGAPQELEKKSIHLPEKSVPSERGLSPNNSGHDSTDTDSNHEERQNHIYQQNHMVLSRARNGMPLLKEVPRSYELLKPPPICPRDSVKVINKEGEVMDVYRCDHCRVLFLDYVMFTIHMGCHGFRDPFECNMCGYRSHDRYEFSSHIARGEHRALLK

Legend:
GSPT1 = GSPT1 (Homo sapiens, UniProt P15170+Q96SW2); experiment: Western blot of GSPT1 protein level in leukemia cell lines HL60 and MOLT-4; type: cell-based; conditions: rapamycin administered alone; HL60, MOLT-4; 12 h
Description: The protein levels were analyzed using Western blot.
The samples were collected after 12 h, and the protein levels were examined by the same method as in Embodiment 3.

IKZF3 = target: T1, IKZF3 (Homo sapiens, UniProt Q96SW2+Q9UKT9); experiment: Western blot of IKZF3 protein level in myeloma cell lines; type: cell-based; conditions: rapamycin administered alone; OPM2, RPMI-8226, U266; 24 h
T1 construct: Cell pellets were collected after 24 h and were lysed using RIPA; The protein levels were analyzed using Western blot; endogenous in cells; host or cells: OPM2, RPMI-8226, U266 myeloma cell lines

Question: What does the source list for `CO[C@H]1C[C@@H]2CC[C@@H](C)[C@@](O)(O2)C(=O)C(=O)N2CCCC[C@H]2C(=O)O[C@H]([C@H](C)C[C@@H]2CC[C@@H](O)[C@H](OC)C2)CC(=O)[C@H](C)/C=C(\C)[C@@H](O)[C@@H](OC)C(=O)[C@H](C)C[C@H](C)/C=C/C=C/C=C/1C` [rapamycin]?
Answer: level of substrate protein GSPT1 (GSPT1): remains unchanged; level of the substrate IKZF3 (IKZF3): remains unchanged
